Taken from: PubChem BioAssay AID1224827 (NIAID, 2016)
In all, the deposit lists about 3,800 reagents; below is an unselected part. About 2,200 of all reagents (57%) count as active. 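Active means a strong reporter change in either direction; calls are per siRNA, not per gene; qiagen siRNAs gave weaker effects.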 The numbers tell different reagents against one gene apart. Further read-outs or replicates are left out here. No sequences are given here.

- Screen: 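Identify regulators of the macrophage TNF-alpha response to bacterial LPS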 (follow-up of hits)
- System: RAW264.7 G9 mouse macrophage reporter clone
- Reagent: single siRNA against mouse genes, 100 nM siRNA
- Timing: siRNA for 2 days, then LPS about 16 h
- Treatment: bacterial lipopolysaccharide (LPS), 10 ng/ml, cells fixed after overnight (about 16 h) stimulation
- Measurement: 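TNF promoter reporter red fluorescence in nuclei, background subtracted, normalised per plate and to non-targeting control siRNA, as z-scores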
- Scale: TNF reporter z-score, mean: higher = stronger Tnf promoter reporter signal
- Hit rule: 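Active siRNA: replicate-mean z-score of 2 or more, or -2 or less; no calls for control wells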

{"gene":"Or5d36","reagent no.":1,"TNF reporter z-score, mean":-2.18,"Outcome":"active"}
{"gene":"Or5d36","reagent no.":2,"TNF reporter z-score, mean":-4.31,"Outcome":"active"}
{"gene":"Or5d36","reagent no.":3,"TNF reporter z-score, mean":-4.48,"Outcome":"active"}
{"gene":"Or5d36","reagent no.":4,"TNF reporter z-score, mean":3.94,"Outcome":"active"}
{"gene":"Or5d36","reagent no.":5,"TNF reporter z-score, mean":2.02,"Outcome":"active"}
{"gene":"Or5d36","reagent no.":6,"TNF reporter z-score, mean":-3.52,"Outcome":"active"}
{"gene":"Runx2","reagent no.":1,"TNF reporter z-score, mean":-3.27,"Outcome":"active"}
{"gene":"Runx2","reagent no.":2,"TNF reporter z-score, mean":-4.09,"Outcome":"active"}
{"gene":"Runx2","reagent no.":3,"TNF reporter z-score, mean":-4.91,"Outcome":"active"}
{"gene":"Runx2","reagent no.":4,"TNF reporter z-score, mean":2.88,"Outcome":"active"}
{"gene":"Runx2","reagent no.":5,"TNF reporter z-score, mean":2.95,"Outcome":"active"}
{"gene":"Runx2","reagent no.":6,"TNF reporter z-score, mean":2.48,"Outcome":"active"}

2 entries from above, reformatted.
| gene | reagent no. | TNF reporter z-score, mean | Outcome |
| --- | --- | --- | --- |
| Or5d36 | 6 | -3.52 | active |
| Runx2 | 1 | -3.27 | active |
